“And” between values parts separate entries of the source, which are not always exact repeats. Equal entries are not always repeated. Out of some 300,000 compounds screened, about 5,400 (1.8%) were called active. Inconclusive results, whose numbers are uncertain, are shown with a selection of clear calls. The call rests on the fitted dose curve; tested in HEK293 cells. A potency beside an inconclusive call is a rough fit, not a confirmed value.
Experiment: qHTS for inhibitors of binding or entry into cells for Marburg Virus
Conditions: Marburg virus pseudotyped entry inhibition, cell reporter; activity change, negative = inhibition: at 37.8 µM (top of the series) unless noted
In the case of CN(C)S(=O)(=O)c1ccc(N2CCCC2)c(C(=O)Nc2nc3ccc(F)cc3s2)c1, the Potency is reported as inconclusive: 20 µM [inhibitor, partial curve, poor fit].
For COc1cccc(NC(=O)C2Cc3ccccc3CN2C(=O)c2ccco2)c1 (stereo not given), the Potency was inconclusive: 2.24 µM [activator, partial curve, poor fit].
With Cc1ccc(C(=O)OCn2ncc(Cl)c(Cl)c2=O)cc1 the Potency was active: 14.6 µM.
In the case of COc1ccc(C(=O)NCc2nnc(SCC(=O)Nc3ccc(F)cc3)n2-c2ccccc2)cc1, the “activity change, negative = inhibition” value is reported as inactive: 21.1% [at 46.1 µM].
With O=C(O)C1CSC(c2ccccc2Cl)N1C(=O)c1ccc(Cl)cc1 (stereo not given) the Potency was inconclusive: 1 µM [inhibitor, single point].
For CC1CN(C(=O)CCc2cc(C(C)(C)C)c(O)c(C(C)(C)C)c2)CC(C)O1 (stereo not given), the “activity change, negative = inhibition” value was inactive: -11.5% [at 46.1 µM].
For Cc1ccc(COc2cccc3cc(-c4noc(-c5ccc(C)cc5)n4)c(=O)oc23)cc1, the Potency was inconclusive: 5.62 µM [activator, single point].
With O=C(CSc1nnc(C2CC2)n1Cc1ccccc1)c1cc2ccccc2o1 the Potency was inconclusive: 3.66 µM [inhibitor, single point].
With Cc1ccc(SCCC(=O)NCCSCc2ccco2)cc1 the “activity change, negative = inhibition” value was inactive: -25.1% [at 46.1 µM].
In the case of Oc1ccc(NCc2ccccc2OCc2ccccc2Cl)cc1, the “activity change, negative = inhibition” value is reported as inactive: -1.63% [at 46.1 µM].
In the case of O=C(C1CC(=O)N(c2ccccc2)C1)N1CCN(c2ccc(F)cc2)CC1 (stereo not given), the “activity change, negative = inhibition” value is reported as inactive: -5.18%.
In the case of O=C(CN1CCN(S(=O)(=O)c2ccc3ccccc3c2)CC1)NC(=O)NC1CCCCC1, the Potency is reported as inconclusive: 35.5 µM [inhibitor, single point].
With CC(C)Cc1cc(C(=O)Nc2cc(C(F)(F)F)ccc2Cl)no1 the Potency was inconclusive: 35.5 µM [inhibitor, single point].
In the case of C/C(=N\NC(=O)c1ccc(Br)cc1)c1ccccc1, the Potency is reported as inconclusive: 11.2 µM [inhibitor, single point].
For CCOc1ccc(OCc2ccc(C(=O)N3CCOCC3)cc2)cc1, the “activity change, negative = inhibition” value was inactive: -5.46%.
In the case of CCN(Cc1ccc(OC)c(F)c1)C(=O)c1oc2ccccc2c1COC, the Potency is reported as inconclusive: 35.5 µM [inhibitor, single point].
With Cc1ccc(S(=O)(=O)N(C)Cc2ccccc2)cc1C(=O)N1CCCCC1 the Potency was inconclusive: 35.5 µM [inhibitor, single point].
For C=CCN1C(=O)c2ccc(C(=O)N3CCN(S(=O)(=O)c4ccccc4Br)CC3)cc2C1=O, the “activity change, negative = inhibition” value was inactive: -10.9% [at 46.1 µM].
In the case of O=C(O)c1ccc(NC(=O)c2cn(-c3ccccc3)nc2-c2ccccc2)cc1, the “activity change, negative = inhibition” value is reported as inactive: -7.38% [at 46.1 µM].
For Cc1ccc(CSc2nc3[nH]ncc3c(=O)[nH]2)cc1, the Potency was inconclusive: 32.6 µM [inhibitor, single point].
With O=C1OCCN1c1ccccc1 the Potency was inconclusive: 35.5 µM [activator, single point].
For O=Cc1ccccc1OCCOc1ccc([N+](=O)[O-])cc1, the “activity change, negative = inhibition” value was inactive: -24.7%.
For CN1C(=O)/C(=C/c2cccn2-c2ccc3ccccc3c2)C(=O)NC1=S, the Potency was inconclusive: 17.8 µM [inhibitor, single point].
For CCOc1cccc(C2/C(=C(\O)c3ccc4c(c3)OCCO4)C(=O)C(=O)N2Cc2ccncc2)c1 (stereo not given), the “activity change, negative = inhibition” value was inactive: 20.6% [at 46.1 µM].
In the case of Cc1ccccc1CS(=O)(=O)c1ncc(Cl)c(C(=O)Nc2nnc(C(C)C)s2)n1, the Potency is reported as inconclusive: 35.5 µM [inhibitor, single point].
With Cc1nn(C)cc1CN(C)C(=O)c1nn2c(c1Br)NC(c1cccs1)CC2C(F)(F)F (stereo not given) the Potency was inconclusive: 15.8 µM [inhibitor, single point].
For CCOc1ccc(CN(CC)C(=O)Cc2c[nH]c3ccccc23)cc1OC, the Potency was inconclusive: 35.5 µM [inhibitor, single point].
For Oc1ccc(CNc2ccccc2O)cc1, the Potency was inconclusive: 18.3 µM [inhibitor, partial curve, poor fit].
With O=S(=O)(c1ccc(-c2cc(C(F)(F)F)on2)s1)N1CCCC1 the Potency was inconclusive: 35.5 µM [inhibitor, single point].
In the case of CC(=O)NC(N(C#N)c1nc(Cl)nc(N(C)C)n1)C(Cl)(Cl)Cl (stereo not given), the “activity change, negative = inhibition” value is reported as inactive: -3.81%.
With O=C1CC(c2ccc(F)cc2)c2c(n3c(nc4ccccc43)[nH]c2=O)N1 (stereo not given) the Potency was inconclusive: 3.16 µM [activator, partial curve, poor fit].
With O=C(Nc1nnc(C2=COCCO2)o1)c1ccc(S(=O)(=O)N2CCCCC2)cc1 the “activity change, negative = inhibition” value was inactive: -15.1% [at 46.1 µM].
With Nc1c(C(=O)N/N=C/c2ccc(Cl)cc2)cnn1-c1ccccc1 the “activity change, negative = inhibition” value was inactive: -18.8%.
With CCN(CC)C(=O)C1CCCN(C(=O)c2cc(COc3cccc(OC)c3)on2)C1 (stereo not given) the “activity change, negative = inhibition” value was inactive: -16.3%.
In the case of C1CCCC(N2CN=C(NC3NC4CCCCC4S3)NC2)CC1 (stereo not given), the Potency is reported as inconclusive: 0.259 µM [inhibitor, partial curve, poor fit].
For COc1ccccc1OCC(=O)O, the Potency was “inactive”.
In the case of O=C1c2ccccc2C(=O)N1Cc1cc(-c2ccccc2Cl)no1, the Potency is reported as inconclusive: 18.3 µM [activator, single point].
For O=c1c2c3c(sc2n(CCN2CCCC2)c(=O)n1Cc1ccco1)CCCCC3, the Potency was inconclusive: 32.6 µM [inhibitor, single point].
With O=C(NNc1c2ccccc2nc2ccccc12)c1ccc(O)cc1O the “activity change, negative = inhibition” value was inactive: -24.7%.
In the case of O=C(Nc1ccccc1N1CCCCC1)C1CCN(S(=O)(=O)c2ccccc2C(F)(F)F)CC1, the Potency is reported as inconclusive: 31.6 µM [inhibitor, single point].
For N#C/C(=C\c1c(Oc2ccc(F)cc2)nc2ccccn2c1=O)c1nc2ccccc2s1, the Potency was inconclusive: 8.91 µM [inhibitor, partial curve, poor fit].
For CN(CCOc1ccc(-c2ccn(S(=O)(=O)c3cccc4ccccc34)n2)cc1)c1ccccn1, the Potency was inconclusive: 5.62 µM [inhibitor, single point].
For c1ccc(CSc2ccc(-c3cccnc3)nn2)cc1, the Potency was inconclusive: 3.16 µM [activator, single point].
In the case of CC1CC(C)CN(c2ccc(-n3cnnn3)cc2[N+](=O)[O-])C1 (stereo not given), the Potency is reported as inconclusive: 3.55 µM [inhibitor, full curve, poor fit].
For CCOc1ccc(CCNC(=O)Cn2nc(CC)n3c(cc4c(OC)cccc43)c2=O)cc1OCC, the “activity change, negative = inhibition” value was inactive: -13.2% [at 46.1 µM].
With CCCCCCOc1ccc(/C(N)=N/O)cc1 the “activity change, negative = inhibition” value was inactive: -5.47%.
With CCN(CC(=O)NC)S(=O)(=O)c1ccc(C)cc1 the Potency was inconclusive: 0.112 µM [activator, full curve, poor fit].
In the case of CC(C)c1ccccc1NC1=NCCCS1, the Potency is reported as inconclusive: 7.94 µM [inhibitor, partial curve, poor fit].
With CCS(=O)(=O)N1Cc2ccccc2CC1C(=O)N1CCN(c2cccc(C)c2C)CC1 (stereo not given) the Potency was inconclusive: 0.73 µM [inhibitor, full curve].
With C=CCNC(=S)NNC(=O)c1ccc2c(c1)OCO2 the “activity change, negative = inhibition” value was inactive: 10.4%.
In the case of COc1cccc(-c2nc(N3CCN(C)CC3)c3ccccc3n2)c1O, the Potency is reported as inconclusive: 11.2 µM [inhibitor, partial curve, poor fit].
For O=C(NCc1cccnc1)c1ccc(Br)o1, the Potency was inconclusive: 7.08 µM [activator, partial curve, poor fit].
In the case of N#C/C(=C/c1ccc(N2CCCCCC2)o1)c1ccc(F)cc1, the Potency is reported as active: 10 µM.
For Cc1ccc2nc(SCC(=O)NC3CCCc4ccccc43)[nH]c2c1 (stereo not given), the Potency was inconclusive: 10 µM [inhibitor, single point].
In the case of Cc1ccccc1CNC(=O)Nc1ccc(Cl)cc1, the Potency is reported as inconclusive: 1 µM [activator, partial curve, poor fit].
With CCN(CC)S(=O)(=O)c1ccc2c(c1)N(CC(=O)Nc1c(C)cc(C)cc1C)C(=O)CS2 the Potency was inconclusive: 25.1 µM [inhibitor, partial curve, poor fit].
For Cn1c(-c2ccc3nc(N)sc3c2)nc2cc(N)ccc21, the Potency was inconclusive: 6.51 µM [inhibitor, full curve, poor fit].
With Cc1cc(C)cc(NC(=O)CSc2nnc(CNC(=O)c3c(F)cccc3Cl)o2)c1 the Potency was inconclusive: 6.31 µM [activator, full curve, poor fit].
With COc1cccc(-n2c(SCC(=O)NCCC3=CCCCC3)nc3n[nH]c(C)c3c2=N)c1 the Potency was inconclusive: 22.4 µM [inhibitor, single point].
With Cc1cc(NC(=O)c2cc(-c3ccccn3)nc3c(Cl)cccc23)no1 the “activity change, negative = inhibition” value was inactive: -19.1%.
In the case of COc1ccc(Oc2cc(C(F)(F)F)cnc2C(N)=O)cc1, the Potency is reported as inconclusive: 3.16 µM [activator, single point].
With O=C(c1ccc(Cn2c(=S)[nH]c3ccc(N4CCOCC4)cc3c2=O)cc1)N1CCN(c2ccc(F)cc2)CC1 the Potency was inconclusive: 2.82 µM [activator, single point].
With Cc1ccc2nc(-c3ccc(NC(=O)C4CCCO4)cc3)[nH]c2c1 (stereo not given) the Potency was inconclusive: 4.61 µM [inhibitor, partial curve, poor fit].
With O=C(CN1CCc2ccccc21)NC(=O)NCc1ccccc1 the “activity change, negative = inhibition” value was inactive: 1.88% [at 46.1 µM].
With COC(=O)c1cc(C(C)=O)n2ccccc12 the Potency was inconclusive: 7.94 µM [inhibitor, partial curve, poor fit].
In the case of COc1ccc(OC)c(N2C(=O)CCCC2=O)c1, the “activity change, negative = inhibition” value is reported as inactive: -7.35%.
In the case of Cc1cc(C(F)F)n2nc(C(=O)Nc3sc4c(c3C(N)=O)CCC4)nc2n1, the Potency is reported as inconclusive: 0.501 µM [activator, full curve, poor fit].
For Cc1ccc(N2C(N)=NC(N)=NC23CCCC3)c(C)c1, the “activity change, negative = inhibition” value was inactive: 36.7%.
In the case of CCC(=O)OC1=CN(Cc2ccccc2)S(=O)(=O)c2ccccc21, the “activity change, negative = inhibition” value is reported as inactive: 4.65% [at 46.1 µM].
On the % scale 0 is the no-effect control and ±100 the full control effect; potency means the concentration at half of the fitted maximal effect.
